Experimental data published in patent US20080081284A1, “OPTICAL INFORMATION RECORDING MEDIUM” (FUJIFILM Corporation, priority 2006, published 2008).
Some entries share one result that the patent states for a list of compounds.

Experiment: Evaluation of light fastness of dye film
Type: physicochemical
Details: light fastness of dye films
Experimental: Dye-containing coating liquids equal to those of Examples 1 to 3, and Comparative Examples 1 to 4 were prepared, and each coating liquid was applied to a 1.1-mm-thick glass plate by a spin coating method under conditions of 23° C. and 50% RH while changing the rotation rate within a range of 500 to 1,000 rpm. The glass plate with the dye film was stored for 24 hours under conditions of 23° C. and 50% RH, and then subjected to a light fastness test using a merry-go-round-type light fastness tester (Cell Tester Model III manufactured by Eagle Engineering, equipped with WG320 Filter manufactured by Schott). The absorption spectrum of the dye film was measured using UV-1600PC manufactured by SHIMADZU immediately before the light fastness test and 48 hours after the light fastness test, and the change of the absorbancy at the maximum absorption wavelength was evaluated.

Residual dye ratio of dye film, ≥ 80%:
CCC(CC)C(=O)n1c(N=Nc2c(C(C)(C)C)nn(C)c2N)nc(C#N)c1C#N [(A-51)], CC(C)c1nn2nc(C(C)(C)C)c(N=Nc3nnc(C(C)(C)C)s3)c2n1C [(A-49)], CN(C)C(=O)n1nc(C(C)(C)C)c(C#N)c1N=Nc1c(C(C)(C)C)nn(C)c1N [(A-2)], Cc1nn2nc(C(C)(C)C)c(/N=N/c3c(C#N)c(C(C)(C)C)nn3C)c2n1C [(A-13)]
